In article PMC9763423:

Molecular target: Akt (human (endogenous in CAL27R))
Assay: co-IP; endogenous TRAF4 and Akt, CAL27R cells treated with/without IR (2 Gy) for 20 min; lysate in IP buffer, primary antibody and Protein A/G agarose beads, immunoblot

B1: TNF receptor-associated factor 4 (TRAF4) (protein, UniProt Q9BUZ4 1-470)
chain: MPGFDYKFLEKPKRRLLCPLCGKPMREPVQVSTCGHRFCDTCLQEFLSEGVFKCPEDQLPLDYAKIYPDPELEVQVLGLPIRCIHSEEGCRWSGPLRHLQGHLNTCSFNVIPCPNRCPMKLSRRDLPAHLQHDCPKRRLKCEFCGCDFSGEAYESHEGMCPQESVYCENKCGARMMRRLLAQHATSECPKRTQPCTYCTKEFVFDTIQSHQYQCPRLPVACPNQCGVGTVAREDLPGHLKDSCNTALVLCPFKDSGCKHRCPKLAMARHVEESVKPHLAMMCALVSRQRQELQELRRELEELSVGSDGVLIWKIGSYGRRLQEAKAKPNLECFSPAFYTHKYGYKLQVSAFLNGNGSGEGTHLSLYIRVLPGAFDNLLEWPFARRVTFSLLDQSDPGLAKPQHVTETFHPDPNWKNFQKPGTWRGSLDESSLGFGYPKFISHQDIRKRNYVRDDAVFIRAAVELPRKILS
For B1, which binding is on record?
Its binding is “binds”.

No constants are given. Whether binding was seen depends on the method and setting. Binding seen in cells or lysates may run through a third protein. A result given as binding can be weak or reduced; the word gives no strength.
